Laboratory results: PubChem BioAssay AID1224826 (NIAID, 2016)
Shown is one part, drawn at random, of about 17,000 reagents. About 1,110 of them (6.6%) were called active. 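Active means lowered or raised reporter signal; replicate intensities are raw and not normalised per plate.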 A reagent listed more than once was tested more than once; the source does not tell the runs apart.

Assay: 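Regulators of Tlr4 signalling leading to Tnf-alpha expression in macrophages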 (primary screen)
Cell system: RAW264.7 G9 macrophages from mouse bearing reporters for p65 (GFP) and the Tnf promoter (mCherry)
Knock-down reagent: siRNA pool against mouse genes, 100 nM
Duration: 16 h of LPS stimulation, after 2 days of siRNA transfection
Conditions: bacterial lipopolysaccharide (Salmonella minnesota R595), 10 ng/ml
Measurement: 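Imaged Tnf reporter mCherry in nuclei, minus background, normalised per plate to the median and expressed as robust z-scores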
Direction: Tnf reporter robust z-score: higher = stronger Tnf promoter reporter signal after LPS; Tnf reporter intensity: higher = stronger Tnf promoter reporter signal
Call rule: 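Called active when robust z-score is at most -1.3, matching the median of the Tlr4 knock-down control, or over 3; control wells and wells with under 50 cells never active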
Calls: active = Tnf reporter clearly lowered or raised; inactive = no clear change in Tnf reporter

no.	gene symbol	Tnf reporter robust z-score	fewer than 50 cells in well	Tnf reporter intensity, replicate 1	Tnf reporter intensity, replicate 2	activity call
1	Kcnv2 (potassium channel, subfamily V, member 2)	0.76	enough cells in well	268	212	inactive
2	AI182371 (expressed sequence AI182371)	-0.16	enough cells in well	109	261	inactive
3	Mgmt (O-6-methylguanine-DNA methyltransferase)	-0.34	enough cells in well	193	109	inactive
4	Pax3 (paired box 3)	0.11	enough cells in well	268	174	inactive
5	Ndfip2 (Nedd4 family interacting protein 2)	-0.38	enough cells in well	90.7	152	inactive
6	Cradd (CASP2 and RIPK1 domain containing adaptor with death domain)	0.79	enough cells in well	296	259	inactive
7	Potefam1 (POTE ankyrin domain family member 1)		fewer than 50 cells per well; well left out of calls	203	88.4	inactive
8	Gpr25 (G protein-coupled receptor 25)	-0.17	enough cells in well	216	253	inactive
9	Dnah14 (dynein, axonemal, heavy chain 14)	-0.01	enough cells in well	178	145	inactive
10	Map3k20 (mitogen-activated protein kinase kinase kinase 20)	0.67	enough cells in well	241	168	inactive
11	Pou6f2 (POU domain, class 6, transcription factor 2)	1.48	enough cells in well	273	268	inactive
12	Zmat5 (zinc finger, matrin type 5)	-0.25	enough cells in well	249	57.9	inactive
13	Ly86 (lymphocyte antigen 86)	1.12	enough cells in well	246	214	inactive
14	Faah (fatty acid amide hydrolase)	0.29	enough cells in well	277	225	inactive
15	Slc37a3		fewer than 50 cells per well; well left out of calls	1.88	82.6	inactive
16	Atp5mk (ATP synthase membrane subunit k)	0.59	enough cells in well	142	81.7	inactive
17	Terf1 (telomeric repeat binding factor 1)	-0.62	enough cells in well	209	90.6	inactive
18	Dleu7 (deleted in lymphocytic leukemia, 7)	-0.53	enough cells in well	97.8	125	inactive
19	Lypd6 (LY6/PLAUR domain containing 6)	0.85	enough cells in well	260	135	inactive
20	Nras (Nras proto-oncogene, GTPase)	0.32	enough cells in well	298	178	inactive
21	Ms4a1 (membrane-spanning 4-domains, subfamily A, member 1)	0.51	enough cells in well	362	196	inactive
22	Tob1 (transducer of ErbB-2.1)	-0.79	enough cells in well	147	113	inactive

Part of the list above, set out differently:
gene symbol,Tnf reporter robust z-score,fewer than 50 cells in well,"Tnf reporter intensity, replicate 1","Tnf reporter intensity, replicate 2",activity call
Mgmt (O-6-methylguanine-DNA methyltransferase),-0.34,enough cells in well,193,109,inactive
Pax3 (paired box 3),0.11,enough cells in well,268,174,inactive
Ndfip2 (Nedd4 family interacting protein 2),-0.38,enough cells in well,90.7,152,inactive

Continued.
no.	gene symbol	Tnf reporter robust z-score	fewer than 50 cells in well	Tnf reporter intensity, replicate 1	Tnf reporter intensity, replicate 2	activity call
23	Sfxn5 (sideroflexin 5)	-2.19	enough cells in well	17.3	23.2	active
24	Vmn1r227 (vomeronasal 1 receptor 227)	-1.2	enough cells in well	72.6	74.6	inactive
25	Sowahd (sosondowah ankyrin repeat domain family member D)	1.62	enough cells in well	232	272	inactive
26	Mrps34 (mitochondrial ribosomal protein S34)	0.81	enough cells in well	207	181	inactive
27	Flacc1 (flagellum associated containing coiled-coil domains 1)	-1.41	enough cells in well	66.9	101	active
28	Hat1 (histone aminotransferase 1)	0.98	enough cells in well	299	265	inactive
29	9130230L23Rik (RIKEN cDNA 9130230L23 gene)	-0.54	enough cells in well	163	138	inactive
30	Gnmt (glycine N-methyltransferase)	0.35	enough cells in well	283	194	inactive
31	Zfp219 (zinc finger protein 219)	0.4	enough cells in well	144	138	inactive
32	Oplah (5-oxoprolinase (ATP-hydrolysing))	-0.49	enough cells in well	125	48	inactive
33	Kif23 (kinesin family member 23)	-1.31	enough cells in well	149	72.4	active
34	Slc7a12	0.01	enough cells in well	108	76.5	inactive
35	Atp6v1c2 (ATPase, H+ transporting, lysosomal V1 subunit C2)	-1.2	enough cells in well	111	88.9	inactive
36	Ippk (inositol 1,3,4,5,6-pentakisphosphate 2-kinase)	0.9	enough cells in well	261	201	inactive
37	Ippk (inositol 1,3,4,5,6-pentakisphosphate 2-kinase)	1.1	enough cells in well	216	83.2	inactive
38	Cap1 (cyclase associated actin cytoskeleton regulatory protein 1)	-1.35	enough cells in well	85.5	78.8	active
39	Rassf10	-0.23	enough cells in well	160	47	inactive
40	Sftpd (surfactant associated protein D)	-0.15	enough cells in well	242	224	inactive
